Experimental data from PubChem BioAssay AID2551 (National Center for Advancing Translational Sciences (NCATS), 2010).
Hit rate of the full screen: of about 310,000 compounds, about 17,000 (5.5%) were called active. The inconclusive results got no clear call from the source; some entries with a clear call stand among them for comparison. The call rests on the fitted dose curve; in most records, active means well fitted inhibition curve with a large enough effect; inconclusive means small, poorly fitted or top-dose-only effect, or effect the other way; inactive means no such curve, though single readings can be large or run the other way. Potencies of inconclusive entries are doubtful fits and often do not repeat.

Chains of the proteins cited; added tags and fusions are not shown. Lines headed by an entry give the natural chain unless they say otherwise; changes in a name come on top.
UniProt P51450: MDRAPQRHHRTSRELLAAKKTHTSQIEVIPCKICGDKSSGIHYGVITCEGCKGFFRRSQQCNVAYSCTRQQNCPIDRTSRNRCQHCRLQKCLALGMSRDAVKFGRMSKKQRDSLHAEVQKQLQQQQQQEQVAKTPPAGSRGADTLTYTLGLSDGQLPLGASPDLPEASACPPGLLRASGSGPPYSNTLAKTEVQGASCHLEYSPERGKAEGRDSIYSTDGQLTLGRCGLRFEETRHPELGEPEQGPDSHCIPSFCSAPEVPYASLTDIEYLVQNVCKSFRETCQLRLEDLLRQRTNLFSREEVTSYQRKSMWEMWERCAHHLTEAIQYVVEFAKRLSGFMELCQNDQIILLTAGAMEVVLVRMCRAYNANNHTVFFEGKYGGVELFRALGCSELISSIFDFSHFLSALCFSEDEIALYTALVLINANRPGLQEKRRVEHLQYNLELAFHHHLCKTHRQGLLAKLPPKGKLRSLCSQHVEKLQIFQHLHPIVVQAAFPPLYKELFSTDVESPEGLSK

molecular target: Nuclear receptor ROR-gamma (Mus musculus) (UniProt P51450); experiment: qHTS for inhibitors of ROR gamma transcriptional activity; settings: Drosophila S2 Gal4-RORgamma UAS-luciferase reporter, 20 h; activity change, negative = inhibition: at 53.6 µM (top of the series); further: nearly all actives have a fitted effect of over 60% in size
Outline: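 Drosophila Schneider cells stably carrying a metallothionein-driven Gal4 DBD–ROR gamma fusion and a UAS-Photinus luciferase reporter were exposed to compound for 1 hr, then induced with copper sulfate (700 uM final) for 20 hr at ambient temperature before luminescence reading.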
On the % scale 0 is the no-effect control and ±100 the full control effect; potency means the concentration at half of the fitted maximal effect.

| SMILES | activity change, negative = inhibition | Potency |
| --- | --- | --- |
| COc1ccc(S(=O)(=O)NCc2cccnc2)cc1NC(=O)c1ccccc1 | inactive: 4.39% | – |
| COc1ccc(C)cc1-n1nc2ccccc2n1 | – | inconclusive: 3.55 µM [activator, full curve] |
| CC1CCCCN1C(=O)c1ccc(COc2ccc([N+](=O)[O-])cc2)o1 (stereo unspecified) | – | inconclusive: 14.1 µM [activator, single point] |
| Cc1ccc(NC(=S)N(CCCN2CCC(C)CC2)Cc2ccco2)cc1C | – | inconclusive: 14.1 µM [inhibitor, single point] |
| COC(=O)COc1ccc(S(=O)(=O)Nc2ccc3c(c2)OCCO3)cc1C | – | inconclusive: 8.91 µM [activator, partial curve] |
| CCN(CC)c1nc(N2CCOCC2)c(C#N)c2c1CN(C)CC2 | – | inconclusive: 35.5 µM [inhibitor, single point] |
| Cc1cc2cc(CCNC(=O)c3cccs3)c(=O)[nH]c2cc1C | – | inconclusive: 8.91 µM [activator, partial curve] |
| CC1=NNC(=O)C1CCC(=O)N/N=C/C(Br)=C/c1ccccc1 (stereo unspecified) | – | inconclusive: 35.5 µM [inhibitor, single point] |
| COc1ccc(-n2ncc3c(N4CCCCC4)ncnc32)cc1 | – | active: 5.01 µM |
| Cc1cccc(C)c1NC(=S)N(CCCN1CCN(C)CC1)Cc1cccs1 | inactive: 10.2% | – |
| CCN1C(=O)/C(=C\c2cn(-c3ccccc3)nc2-c2cccnc2)SC1=S | inactive: -0.0743% | – |
| Cc1nc2ccc(Cl)cn2c1C(=O)NN | – | inconclusive: 15.8 µM [inhibitor, single point] |
| CS(=O)(=O)c1ccc2c(c1)SC1=NC(=O)/C(=C/c3ccco3)C(=N)N12 | – | inconclusive: 6.31 µM [activator, single point] |
| O=C(COC(=O)c1ccccc1NCCO)Nc1cc(C(F)(F)F)ccc1N1CCOCC1 | – | inconclusive: 11.2 µM [activator, partial curve] |
| c1ccc(-c2ccc(CN3CCSCC3)cc2)cc1 | – | inconclusive: 35.5 µM [activator, single point] |
| CCOc1cc(/C=N/NC(=O)OC)ccc1OCCSc1ccc(Cl)cc1 | – | inconclusive: 10 µM [activator, partial curve] |
| Cc1ccc(C)c(N2CCN(C(=O)CN3C(=O)c4ccccc4C3=O)CC2)c1 | – | inconclusive: 15.8 µM [activator, partial curve] |
| Cc1cc(C(=O)N/N=C/c2cc([N+](=O)[O-])ccc2O)c2ccccc2n1 | – | active: 2.82 µM |
| C=CCn1c2ccccc2c(=O)c2cc(C#CC3(O)CCCCC3)ccc21 | – | inconclusive: 14.1 µM [inhibitor, partial curve] |
| CC1CCc2c(sc(/N=C/N(C)C)c2C#N)C1 (stereo unspecified) | – | inconclusive: 3.55 µM [activator, full curve] |
| CCOC(=O)c1ccccc1NC(=O)COC(=O)C(CC(C)C)NC(N)=O (stereo unspecified) | inactive: 16.1% | – |
| O=S(=O)(c1ccccc1)N1CCC2(CCCN(Cc3nccs3)C2)CC1 | inactive: 24.6% | – |
| O=C(CC12CC3CC(CC(C3)C1)C2)N1CCCOC1 | inactive: 2.41% | – |
| CCCN1CCN(CCCNC(=O)c2ccc(CS(=O)c3ccccc3C)o2)CC1 (stereo unspecified) | inactive: -5.68% | – |

| SMILES | activity change, negative = inhibition | Potency |
| --- | --- | --- |
| COc1ccc(-c2cc(C(F)F)n3ncc(C(=O)Nc4ccc(C(=O)N5CCOCC5)cc4)c3n2)cc1 | inactive: -6.32% | – |
| CCOc1ccc(NC(=O)CN2C(=O)C3CCCN3C2=O)cc1 (stereo unspecified) | – | inconclusive: 35.5 µM [inhibitor, single point] |
| Cc1[nH]n(-c2ccccc2)c(=S)c1C=Nc1ccc([N+](=O)[O-])cc1 | – | active: 3.16 µM |
| O=C(NC(=S)NNC(=O)c1ccccc1[N+](=O)[O-])c1ccccc1 | – | active: 4.47 µM |
| O=[N+]([O-])c1cccc(-c2n[nH]c(=S)n2-c2ccc(Br)cc2)c1 | – | active: 10 µM |
| COc1ccc(NC(=S)N2CCN(c3ccccn3)CC2)cc1OC | – | inconclusive: 5.62 µM [activator, single point] |
| CC(C)=CCC1=C(O)[C@](O)(CC=C(C)C)C(=O)C(C(=O)CC(C)C)=C1O | – | inconclusive: 15.8 µM [activator, single point] |
| CCN1CCN(c2cc3nc(C)n(Cc4ccccc4)c(=O)c3cc2NC(=O)c2ccccc2F)CC1 | – | active: 11.2 µM |
| Cc1cc2ccccn2c1C(=S)NC(=O)c1ccccc1 | – | active: 3.16 µM |
| Oc1ccccc1N=Nc1ccccc1O | – | active: 1.41 µM |
| Cc1ccc(N=C2NC(=O)/C(=C\c3ccsc3)S2)c(C)c1 | – | inconclusive: 35.5 µM [inhibitor, single point] |
| Cc1ccc(-c2cc3nc(C)cc(C)n3n2)cc1 | – | inconclusive: 7.08 µM [inhibitor, full curve, poor fit] |
| Cc1cc(NCCN2CCOCC2)n2ncc(-c3ccccc3)c2n1 | – | active: 3.55 µM |
| O=C(Nc1ccc(Cl)c(-c2nc3ccccc3[nH]2)c1)c1ccc2c(c1)OCO2 | – | inconclusive: 11.2 µM [activator, partial curve] |
| C[C@@H]1CN(c2nc3nonc3nc2N2CCSCC2)C[C@H](C)O1 | – | inconclusive: 2 µM [inhibitor, partial curve] |
| CC1(C)CC(=O)c2cc(N=C/C(C(=O)c3ccccc3)=C(\O)c3ccccc3)c(=O)oc2C1 | – | inconclusive: 25.1 µM [inhibitor, single point] |
| O=C(Nc1sc2c(c1C(=O)O)CCCCC2)c1ccccc1F | inactive: 11.7% | – |
| COc1ccc(OCC(=O)NNC(=O)c2nn(C)c(=O)c3ccccc23)cc1 | – | inconclusive: 20 µM [activator, single point] |
| O=c1c(S(=O)(=O)c2ccc(Cl)cc2)cn(Cc2ccccc2F)c2ccc(F)cc12 | – | inconclusive: 31.6 µM [activator, single point] |
| CCCC(=O)NC(c1ccc(Cl)cc1Cl)c1ccc2cccnc2c1O (stereo unspecified) | – | active: 5.62 µM |
| COc1ccc(NC(=O)CN2CCN(c3ccccc3)CC2)cc1 | inactive: 7.1% | – |
| COCCSc1nnc(NC(=O)CCS(=O)(=O)c2ccccc2)s1 | inactive: -0.443% | – |
| COc1ccc(N2C(=O)/C(=C\c3ccco3)N=C2SCC(=O)N(C(C)C)C(C)C)cc1Cl | – | inconclusive: 31.6 µM [inhibitor, single point] |
| O=C(CCN1C(=O)/C(=C/c2ccccc2F)SC1=S)NC1C=CS(=O)(=O)C1 (stereo unspecified) | – | inconclusive: 6.31 µM [inhibitor, single point] |

In a second layout: entries from further up
SMILES | activity change, negative = inhibition | Potency
CCN1CCN(c2cc3nc(C)n(Cc4ccccc4)c(=O)c3cc2NC(=O)c2ccccc2F)CC1 | – | active: 11.2 µM
Oc1ccccc1N=Nc1ccccc1O | – | active: 1.41 µM
COc1ccc(NC(=O)CN2CCN(c3ccccc3)CC2)cc1 | inactive: 7.1% | –

One compound at a time, from the list above. Values in the order: activity change, negative = inhibition | Potency
`CCCC(=O)NC(c1ccc(Cl)cc1Cl)c1ccc2cccnc2c1O` (stereo unspecified) reads – | active: 5.62 µM
`C[C@@H]1CN(c2nc3nonc3nc2N2CCSCC2)C[C@H](C)O1` reads – | inconclusive: 2 µM [inhibitor, partial curve]

Later entries:

| SMILES | activity change, negative = inhibition | Potency |
| --- | --- | --- |
| CCc1nnc(N/N=C/c2ccc(N3CCC(C)CC3)c([N+](=O)[O-])c2)n1N | – | active: 10 µM |
| COc1ccc(C(=O)N/N=C/c2ccc(OC)c(CN3CCN(c4ccc(F)cc4)CC3)c2)cc1 | inactive: 12.3% | – |
| Cc1ccc(CC(=O)Nc2cccc([N+](=O)[O-])c2)cc1 | – | inconclusive: 35.5 µM [activator, single point] |
| CCOC(=O)N1C(=O)[C@@](c2ccc(Cl)cc2)(C(C)C)N1C(=O)OCC | – | inconclusive: 31.6 µM [activator, single point] |
| CCN(CC)c1ccc(/C=N/NC(=O)c2ccc(Br)o2)cc1 | – | inconclusive: 25.1 µM [inhibitor, single point] |
| CCOC(=O)/C(=N/Nc1ccccc1)Sc1nnnn1-c1ccc(C)cc1 | – | inconclusive: 11.2 µM [inhibitor, partial curve] |
| CCn1c(SCC(=O)Nc2nc(C)c(C)s2)nnc1-c1cccs1 | – | inconclusive: 10 µM [activator, partial curve] |
| NS(=O)(=O)c1cc2c(cc1Cl)N[C@H](Cc1ccccc1)NS2(=O)=O | inactive: 4.29% [at 10 µM] | – |
| C[C@@H](C(=O)NCc1ccccn1)[C@@H]1C[C@@]1(C)[C@@H](NC(=O)OCc1ccccc1)c1ccccc1 | – | inconclusive: 35.5 µM [activator, single point] |
| O=C(Nc1nccs1)C(F)(F)C(F)(F)C(F)(F)C(=O)Nc1nccs1 | – | inconclusive: 11.2 µM [inhibitor, single point] |
| CCc1c(C)nc(N)nc1OCC(F)(F)C(F)F | – | inconclusive: 2 µM [inhibitor, partial curve] |
| CCc1ccc(-c2nc(CCl)cs2)cc1 | – | inconclusive: 35.5 µM [inhibitor, single point] |
| COc1ccc(NC(=O)C/C(C)=N/NC(=O)c2cccs2)c([N+](=O)[O-])c1 | – | active: 20 µM |
| Cc1ccsc1/C=C(\C(=O)c1ccc(OC(C)C)cc1)c1nc2ccccc2o1 | – | inconclusive: 3.16 µM [activator, single point] |
| Cc1cc(C)c(C#N)c(SCc2nnc(-c3ccccc3)o2)n1 | – | inconclusive: 3.98 µM [inhibitor, partial curve] |
| COc1ccc(/C=C/C(=O)c2ccc(O)cc2O)cc1 | – | active: 0.0398 µM |
| CC(=O)N(C(C)=O)n1c(/C=C/c2ccc([N+](=O)[O-])cc2)nc2ccccc2c1=O | – | inconclusive: 35.5 µM [inhibitor, single point] |
| COc1ccccc1NC(CC(=O)c1ccccc1)C(=O)OCC(=O)c1ccc(C)cc1 (stereo unspecified) | – | inconclusive: 1.41 µM [activator, partial curve] |
| Cc1cc(N2CCN(C(=O)c3ccco3)CC2)n2nc(-c3cccc(Cl)c3)cc2n1 | – | inconclusive: 35.5 µM [inhibitor, single point] |
| CC(C)CCNC(=O)C1CCN(Cc2cccc(OCc3ccccc3)c2)CC1 | inactive: 43.4% | – |
| COc1ccccc1NC(=O)c1cc(Cl)nnc1Cl | – | inconclusive: 7.08 µM [inhibitor, full curve, poor fit] |
| COc1ccccc1Sc1nc(-c2ccccn2)ncc1OC | – | active: 7.94 µM |
| COC(=O)c1cccc(NC(=O)CCc2ccccc2)c1 | – | inconclusive: 31.6 µM [activator, single point] |

As a working copy, part of the list above:

| SMILES | activity change, negative = inhibition | Potency |
| --- | --- | --- |
| COc1ccccc1Sc1nc(-c2ccccn2)ncc1OC | – | active: 7.94 µM |
| COC(=O)c1cccc(NC(=O)CCc2ccccc2)c1 | – | inconclusive: 31.6 µM [activator, single point] |
